Experimental data as given in patent US7414075B2, “Composition for lowering internal lipid content” (Ajinomoto Co., Inc., priority 2003, dated 2008).

How the values were obtained:
[1] = Breeding process: body weight and ingested amount of feed in rats on 20% lard food with 1% cholesterol; assay type: in vivo, rat; conditions: 0.1 mmol per kg feed, pair feeding four weeks; mean ± SD
Description: (§1) Twenty-four nine-week old male Wistar strain rats were used and divided into four groups each comprising six rats, including a control group, a 0.1 mmol/kg capsaicin group, a 0.1 mmol/kg capsinoid group, and a 1.0 mmol/kg capsinoid group. A 20% lard food to which 1% cholesterol was added was administered as a feed to the control group. For the remaining three groups, capsaicin of 0.1 mmol per kg final concentration of the feed, capsinoid of 0.1 mmol per kg final concentration of the feed, and capsinoid of 1.0 mmol per kg final concentration of the feed, respectively, were added to the feed, similar to the control group. The capsinoid was a mixture of 4-hydroxy-3-methoxybenzyl (E)-8-methyl-6-nonenoate and 4-hydroxy-3-methoxybenzyl 8-methylnonanoate in about 2:1 ratio.
(§2) The above groups each comprising six rats were subjected to pair feeding for four weeks. Breeding of the experimental animals was conducted in each individual cage and, during the breeding period, body weight was measured once a week and ingested amount of the feed was calculated by deducting the residue from the administered amount. Feces were collected for three days before dissection. After completion of breeding, the rats were sacrificed and dissected. Blood was collected. […] Furthermore, the ratio of the excised organs to the total body weight was calculated. […]

male Wistar strain rats = assay: Excretion of cholesterol into feces during three days before dissection; assay type: in vivo, rat; conditions: 0.1 mmol per kg feed, mean ± SD
Description: as §1, §2

COc1cc(CNC(=O)CCCC/C=C/C(C)C)ccc1O [Capsaicin, capsaicin]
Average Ingested Amount (g) of Feed [1]: 17.0 ± 1 g
Ingested Amount of Feed (male Wistar strain rats): 49.3 ± 3.1 g/3 days
Excreted Amount of Feces (male Wistar strain rats; * p<0.05): 3.3 ± 0.4 g/3 days
